Measurements as given in patent US4513008A, “Virucidal compositions and therapy” (The Vinoxen Company, Inc., priority 1982, dated 1985).
For at least one compound, name, drawing or mass did not settle the structure.

System: herpes simplex virus type 2 (HSV-2)
Test: In vitro HSV-2 bioassay: virucidal plaque assay (HEP-2 cells)
Assay type: cell-based, HSV-2 strain 333
Description: Evidence of the efficacy of the virucides of the invention in vitro has been obtained from bioassay using HSV-2, using a standard assay procedure. Serial dilutions of the compounds were tested for their ability to prevent plaque formation by a stock virus suspension. Reduction of plaque titer by test compounds as compared to mock treated controls was indicative of virucidal activity. […] These represent the upper limit for the drug concentration, since dilutions were not carried beyond 1:6400 and in some cases 1:12800.
Cell Culture. Cell cultures used for the propagation and titration of HSV-2 were the human diploid lung embryonic line MRC-5 and the human malignant epitheloid cell line HEP-2 respectively. Stock monolayer cultures of both cell lines were propagated in Dulbecco's Modified Eagle's medium (DME) supplemented with 10% (V/V) calf serum. Spinner cultures for mass production of HEP-2 cells were grown in Joklik's medium supplemented with 10% (V/V) calf serum and 1% (W/V) pluronic acid. […]
HSV-2 was titrated by plaque assay in HEP-2 cells under a semi-solid methyl cellulose overlay. […] Virus plaques were visualized by staining with crystal violet and counted under a dissecting microscope. Virus titers were calculated from the plaque numbers by averaging the plaque count and multiplying by 3.3 (0.3 ml plates). […]

SMILES: CC/C=C\C/C=C\C/C=C\C/C=C\C/C=C\CCCC(=O)O [EPA, eicosapentaenoic acid]
- virucidal activity against HSV-2 in words: potent and fast-acting virucides
